Source: PMC9712689
No constants are given. Whether binding was seen depends on the method and setting.

B1: RlpA-Δ32 (domain or fragment, UniProt Q9X6V6 32-342)
chain: PQQPARQAGISGPGDYSRPHRDGAPWWDVDVSRIPDAVPMPHNGSVKANPYTVLGKTYYPMNDARAYRMVGTASWYGTKFHGQATANGETYDLYGMTAAHKTLPLPSYVRVTNLDNGKSVIVRVNDRGPFYSDRVIDLSFAAAKKLGYAETGTARVKVEGIDPVQWWAQRGRPAPMVLAQPKQAVAQAAPAAAQTQAVAMAQPIETYTPPPAQHAAAVLPVQIDSKKNASLPADGLYLQVGAFANPDAAELLKAKLSGVTAAPVFISSVVRNQQILHRVRLGPIGSADEVSRTQDSIRVANLGQPTLVRPD
B2: RlpA-Δ81 (domain or fragment, UniProt Q9X6V6 82-342)
chain: YTVLGKTYYPMNDARAYRMVGTASWYGTKFHGQATANGETYDLYGMTAAHKTLPLPSYVRVTNLDNGKSVIVRVNDRGPFYSDRVIDLSFAAAKKLGYAETGTARVKVEGIDPVQWWAQRGRPAPMVLAQPKQAVAQAAPAAAQTQAVAMAQPIETYTPPPAQHAAAVLPVQIDSKKNASLPADGLYLQVGAFANPDAAELLKAKLSGVTAAPVFISSVVRNQQILHRVRLGPIGSADEVSRTQDSIRVANLGQPTLVRPD

Key:
[1] = target: RlpA-Δ32 (P. aeruginosa PAO1) (UniProt Q9X6V6); test: SEC + AUC; sedimentation velocity, 42,000 RPM, 20 °C; SEC conditions not shown; both purified
[2] = target: RlpA-Δ81 (P. aeruginosa PAO1) (UniProt Q9X6V6); test: as above

Row | Binder | binding [1] | binding [2]
1 | B1 | no binding | –
2 | B2 | – | no binding
